We go through 18 molecules from PMC10163288.

The chains are these.
B1: il10ra_site1_sap_13_mot_HHH_b2_07784_af2_000000103_0001_19_36_H_._HHH_b2_04412_af2_0001_0000600023_0000001_1_0001 (protein)
chain: SSSSDEEEEELKELLREAKELIEEGNPQEAIEVLRRAVRLALRLGDEEALQEIWELVHRLKSSSS
B2: il10ra_site1_sap_19_mot_HHH_b1_07211_af2_000000161_0001_24_40_H_._HHH_b2_03175_af2_0001_0000300016_0000001_0_0001 (protein)
chain: SSSSSDASRRVYELLRRAAEADHEGDKEKAEEILEEAEELAEEGNNRILAWLVEWLLRRISSSSS
B3: il10ra_site1_sap_17_mot_HHH_b2_03425_000000200_0001_22_39_H_._HHH_b2_08248_0001_0000600033_0000001_0_0001_af2pred_0001 (protein)
chain: SSSSSSEEEAERAVRFLLEAAKQIEDEEVVKLALYDAKAVAEDLNDEELRELVEKVEEELSSSSS
B4: il10ra_site1_sap_26_mot_HHH_b2_05111_af2_000000002_0001_42_56_H_._HHH_b1_05767_af2_0001_0000300004_0000002_0_0001 (protein)
chain: SSSSSDITEEIMELIREFMELLKRGDEEEAQEVVERAEELARESGNRLLLWQIEWLKRLTSSSSS
B5: il10ra_site1_normal_mot_2c1a291787c6f40772924d4e9068d803_0001_af2_000000222_0001_34_48_H_._HHH_b1_03643_af2_0001_0000400018_0000002_0_af2pred_0001 (protein)
chain: SSSSSDDRVLELAARALALATREGDEERARRLFELLIRLYREGDPEVEEELEKLAREVLESSSSS
B6: il10ra_site1_sap_12_mot_HHH_b1_03613_af2_000000245_0001_1_20_H_._HHH_b1_00600_af2_0001_0000100001_0000002_0_0001_af2pred_0001 (protein)
chain: SSSSSEELEIRALLRKAKLAVEAGDPEAARIALEWAEKLARELGDEELLREIEELLEKLEKSSSS
B7: il10ra_site1_sap_18_mot_HHH_b1_02665_000000293_0001_1_18_H_._HHH_b2_04412_af2_0001_0000100001_0000001_0_0001 (protein)
chain: SSSSDAEELAEEVIEELEELRKRGNHQEVFEAIEEAIKRLIELNDQEALRLLLRFLRELLSSSSS
B8: il10ra_site1_sap_9_mot_HHH_b1_00666_000000226_0001_43_56_H_._HHH_b1_00849_0001_0000300010_0000001_0_0001_af2pred_0001 (protein)
chain: SSPEEAQKLLEEAEELAEEQNDEKARIAVRFLKLSDEDARKRNNEEAVRAVAWAAEALLQILRKS
B9: il10ra_site1_normal_mot_8756ee2cf497b5429c717dfc0c0bcfd6_0001_000000186_0001_1_13_H_._HHH_b2_02451_af2_0001_0000900015_0000001_0 (protein)
chain: SSSSDESQEVIEALRQVVELLQEGDEEEAEELAEEALRIARELGNDVLVVQLEYALRRARSSSSS
B10: il10ra_site1_normal_mot_HHH_b1_04275_000000150_0001_22_39_H_._HHH_b2_01516_af2_0001_0000400013_0000002_0 (protein)
chain: SSSSDEQQRVLELLLEVFRALLRGDPEEAEELLREAEELAERLNDERLEEAIRIVREAVEASSSS
B11: il10ra_site1_normal_mot_8756ee2cf497b5429c717dfc0c0bcfd6_0001_000000186_0001_1_13_H_._HHH_b1_06454_0001_0000300028_0000001_0_af2pred_0001 (protein)
chain: SSSSSSSDVFELLREAAELHFEGNPEEARKVLEEAEELAEERGDLTAEAIIRFMLEQASSSSSSS
B12: il10ra_site1_normal_mot_HHH_b2_00800_af2_000000047_0001_1_20_H_._HHH_b1_05749_0001_0000300027_0000001_0 (protein)
chain: SSSSQEEYEFVREIIERAKELFEEGDPEEARRLLEEAEEEAEELGNPLVKFSLEALLKALRSSSS
B13: il10ra_site1_sap_26_mot_HHH_b2_02053_af2_000000006_0001_3_19_H_._HHH_b1_02402_0001_0000100003_0000002_0_0001 (protein)
chain: SSSSDLEELVEAALRLAEQALEAGDPRAARLMLRALEVVLEREGNPELLEEVERLLEEIENSSSS
B14: il10ra_site1_normal_mot_0cd074c2d6d3de76f1399c5a775575d2_0001_1_af2_000000000_0001_16_30_H_._a6da520ff4a02840130205282d0b8d49_0001_0001_0000200007_0000001_0_af2 … (protein)
chain: SREQAILYAAIVASGGDEDRIEHLLEIYYEFTGDPAVKEVLERLRAAKAAGIPAEELLKQLEAEN
B15: il10ra_site1_normal_mot_HHH_b2_03220_af2_000000223_0001_23_40_H_._HHH_b1_02071_0001_0000300027_0000001_0 (protein)
chain: SSSSNERNEEIWELLRRILEAIAEGDEELVEELLEEVRRLIEEANSEVFKFALRALERALKSSSS
B16: il10ra_site1_sap_12_mot_HHH_b2_03328_af2_000000127_0001_1_19_H_._HHH_b2_04442_0001_0000600053_0000001_0_0001 (protein)
chain: SSSSDDYEHAKKLIEEAAELQRQGNPEEAERVLEELEEFLEERNDLVTLWAVRHLLELIRRSSSS
B17: il10ra_site1_sap_19_mot_HHH_b2_06480_af2_000000075_0001_1_18_H_._HHH_b1_01541_af2_0001_0000200015_0000002_0_0001 (protein)
chain: SSSSDEELREEAEELLEKLKELNAQERFELLKEVIELAHEHNDPEVFRLVMEAIKEFIERSSSSS
B18: il10ra_site1_sap_20_mot_126ace9b790e630c13bc3545a3f0f279_0001_af2_000000183_0001_15_29_H_._HHH_b1_06895_0001_0000200006_0000001_0_0001 (protein)
chain: SSSSDEEDEEVLRLSREAFRLALRGNPEEARRVLEEAIEIAREIGNERALEMLERLLETQSSSSS

The list shows a part of the results.

The target in the assay is il10ra, Q13651. Briefly: yeast display titration.
With B1, the “apparent Kd” value was “inactive: no binding seen”.
Regarding B2, the “apparent Kd” value is “inactive: no binding seen”.
In the case of B3, the “apparent Kd” value is “inactive: no binding seen”.
To B4 belongs “inactive: no binding seen”; to B5, “inactive: no binding seen”; to B6, “inactive: no binding seen”.
With B7, the “apparent Kd” value is “inactive: no binding seen”.
With B8, the “apparent Kd” value is “inactive: no binding seen”.
Turning to B9, the “apparent Kd” value is “inactive: no binding seen”.
With B10, the “apparent Kd” value was “inactive: no binding seen”.
To B11 belongs “inactive: no binding seen”; to B12, “inactive: no binding seen”.
In the case of B13, the “apparent Kd” value was “inactive: no binding seen”.
With B14, the “apparent Kd” value is “inactive: no binding seen”.
To B15 belongs “inactive: no binding seen”.
For the molecule B16, the “apparent Kd” value was “inactive: no binding seen”.
Regarding B17, the “apparent Kd” value was “inactive: no binding seen”.
Regarding B18, the “apparent Kd” value was “inactive: no binding seen”.
